Data source: PubChem BioAssay AID1259308 (NCATS, 2017)
In all, the deposit lists about 59,000 reagents; this is an unselected part. In the full data, about 1,510 (2.6%) were called active. 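Calls use total luciferase alone and ignore viability, so some active siRNAs may act by altering cell number.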 Entries without a mark were called inactive. The numbers tell different reagents against one gene apart. Reagent sequences are not shown.

- Screen: 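Candidate targets for better recombinant protein yield in mammalian cells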 (primary screen)
- Cell system: human HEK293 embryonic kidney cells stably expressing firefly luciferase (HEK-CMV-Luc2-Hygro)
- Knock-down reagent: single siRNA against human genes, 0.8 pmol siRNA per well
- Time to read-out: 72 h
- Measured: 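Reporter luminescence and viable-cell signal on separate replicate plates, given as percent of non-targeting control and median/MAD z-scores, plus per-cell luciferase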
- Scale: total luciferase, z-score and total luciferase, % of control: higher = more reporter protein produced; luciferase per cell, z-score: higher = more reporter output per viable cell; viable cells, % of control: higher = more viable cells
- Active means: 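Active when the median/MAD z-score for overall luciferase is greater than 3; a gene was taken forward for validation with new siRNAs if at least two of its three siRNAs passed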
- Meaning of the calls: active = raised luciferase; inactive = no rise

gene	reagent	total luciferase, z-score	total luciferase, % of control	luciferase per cell, z-score	viable cells, % of control
FUT8	1	1.45	111	1.27	88.5
FUT8	2	0.938	101	0.742	92.4
FUT8	3	-1.03	61.5	-1.09	91.5
RFX4	1	1.21	106	0.856	94.5
RFX4	2	-0.878	64.4	-0.406	80.1
RFX4	3	1.79	118	1.04	100
OR9G1	1	0.281	87.5	0.822	78.7
OR9G1	2	-1.24	57.2	-0.866	80.3
OR9G1	3	0.311	88.1	-0.128	102
LIFR	1	-0.741	67.1	-0.434	84.1
LIFR	2	-0.54	71.1	-0.951	102
LIFR	3	-0.255	76.8	-0.333	93.7
DCDC2C	1	0.46	91	-0.214	108
DCDC2C	2	-1.42	53.6	-0.139	62.1
DCDC2C	3	-0.794	66.1	-0.916	94
SPTSSA	1	0.687	95.6	0.605	91.1
SPTSSA	2	-0.0827	80.2	-0.0438	90.7
SPTSSA	3	0.547	92.8	0.85	82.9
KLHL21	1	-0.38	74.3	-0.111	85.5
KLHL21	2	-0.0479	80.9	0.0151	90.1
KLHL21	3	-0.234	77.2	-0.014	86.6
CEP170	1	0.705	95.9	0.14	103
CEP170	2	-0.922	63.6	-0.971	91.7
CEP170	3	0.762	97.1	0.43	96.8
PRKAR1B	1	0.448	90.8	-0.0476	103
PRKAR1B	2	-0.428	73.4	-0.796	101
PRKAR1B	3	1.87	119	1.23	96.3
CENPO	1	3.57 (active)	153	2.5	88.3
CENPO	2	-0.038	81.1	-0.613	107
CENPO	3	0.909	100	0.0191	111
OR8B8	1	1.7	116	1.64	83.9
OR8B8	2	-0.146	79	-0.396	98
OR8B8	3	-0.346	75	-0.583	97.7

Reformatted: entries from further up.
{"gene":"CEP170","reagent":3,"total luciferase, z-score":0.762,"total luciferase, % of control":97.1,"luciferase per cell, z-score":0.43,"viable cells, % of control":96.8}
{"gene":"PRKAR1B","reagent":1,"total luciferase, z-score":0.448,"total luciferase, % of control":90.8,"luciferase per cell, z-score":-0.0476,"viable cells, % of control":103}
{"gene":"PRKAR1B","reagent":2,"total luciferase, z-score":-0.428,"total luciferase, % of control":73.4,"luciferase per cell, z-score":-0.796,"viable cells, % of control":101}
{"gene":"PRKAR1B","reagent":3,"total luciferase, z-score":1.87,"total luciferase, % of control":119,"luciferase per cell, z-score":1.23,"viable cells, % of control":96.3}
{"gene":"CENPO","reagent":1,"total luciferase, z-score":"3.57 (active)","total luciferase, % of control":153,"luciferase per cell, z-score":2.5,"viable cells, % of control":88.3}
{"gene":"CENPO","reagent":2,"total luciferase, z-score":-0.038,"total luciferase, % of control":81.1,"luciferase per cell, z-score":-0.613,"viable cells, % of control":107}
{"gene":"CENPO","reagent":3,"total luciferase, z-score":0.909,"total luciferase, % of control":100,"luciferase per cell, z-score":0.0191,"viable cells, % of control":111}

Continued.
gene	reagent	total luciferase, z-score	total luciferase, % of control	luciferase per cell, z-score	viable cells, % of control
DCAF11	1	-0.0318	81.3	-0.24	96.7
DCAF11	2	-0.126	79.4	-0.344	97.1
DCAF11	3	-0.0797	80.3	0.519	78.3
FAM156A	1	-1.33	55.5	-1.2	85
FAM156A	2	-0.0236	81.4	-0.115	93.8
FAM156A	3	-0.225	77.4	-0.255	92.5
PTDSS2	1	-0.431	73.3	-0.193	86.2
PTDSS2	2	1.5	112	1.99	73.9
PTDSS2	3	-1.73	47.5	-1.42	77.2
DCLRE1A	1	-0.536	71.2	0.154	76.4
DCLRE1A	2	1.37	109	3.9	43.7
DCLRE1A	3	0.44	90.6	0.48	89.2
ZNF134	1	0.895	99.7	0.767	91
ZNF134	2	2.74	136	2.94	70.2
ZNF134	3	-0.296	76	0.0267	84.3
FCGR2B	1	1.09	104	0.109	113
FCGR2B	2	1.05	103	0.0793	112
FCGR2B	3	-1.54	51.3	-1.31	80.9
LCMT1	1	-0.427	73.4	-0.605	96.2
LCMT1	2	0.0879	83.6	-0.22	99
LCMT1	3	0.921	100	-0.0567	114
BDKRB2	1	0.714	96.1	0.905	84.6
BDKRB2	2	2.25	127	1.89	86
BDKRB2	3	-0.502	71.9	-0.17	84
